Inconclusive results, whose numbers are uncertain, are shown with a selection of clear calls. Where the call is inconclusive, the potency comes from a doubtful curve fit. Active and inactive are the calls of the source. Calls come from the whole dose curve; as a rule, active = well fitted cell-killing curve with a large enough effect; inconclusive = small, poorly fitted or top-dose-only effect; inactive = flat fitted curve, though single readings scatter.
Experiment: Identifying Small Molecule Inhibitors of Pancreatic Cancer Stem Cells (SN12C, Adherent) (AID 1259358);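 note: cell survival measured after 48 h of compound exposure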
Details: viability/growth inhibition; series mostly up to 46.1 µM; viability (percent of control): at the top concentration
From the text: Progenitor-like cancer cells, often referred to as cancer stem cells (CSC), are believed to be the drivers of therapeutic resistance and rapid recurrence. CSCs are postulated to reside in specific niches characterized by low oxygen tension, limited nutrient supply, and high redox load. Selectively targeting CSC, alone or in combination with cytotoxic agents, as a means to produce durable remissions is an appealing concept. Modeling these cells in in vitro setting is an important step in finding new therapies and/or targets. Multiple reports highlight that forcing cells in culture into 3-dimensionaly architectures (spheroids) re-establishes key progenitor-like transcriptional signatures. Pancreatic cancer is among the diseases with the most dismal outlook which is driven, largely, by recurance following front-line therapies. […] In hopes of deriving new insight into the targeting of these pancreatic CSCs we examined three established pancreatic cancer cell lines in cytotoxicity assays versus a collection of approved and investigational drugs. Importantly, we screened these lines as traditional monolayer (2D) and spheroid (3D) formats to gain an appreciation of agents with differential activity.
Multicellular tumor spheroids from Panc1, MiaPaCa-2, and the primary low-passage tissue culture line SB.06 were seeded in stem cell media (SCM) in nonadherent 6-well plates coated with hydrogel (Corning Life Sciences, Chelmsford, Mass) and pancreatic spheres generated for 14 days before screening. Cells were seeded into 1536-well solid-bottom white tissue culture treated Greiner Bio One Plates (789173-F) using a MultiDrop Combi (Thermofisher Scientific) dispenser and a small sterile cassette. One column was media alone to be used as a :"no cells" control. The plates were then covered with sterilized stainless steel gasketed lids from Kalypsys. After allowing cells to attach for 4 hours, 23 nL of test compound or control (negative control DMSO and positive control 9.2 uM Bortezomib-final) were added from a 1536-well polypropylene compound source plate to each well using a 1536 head pin tool from Kalypsys. Cells were then incubated for 48 hours at 37C, 95% relative humidity and 5% CO2. After 48 hours, plates were removed from the incubator and 3 uL of CellTiter-Glo (Promega) was added using an Aurora Flying Reagent Dispenser Bioraptor. Plates were incubated at room temperature for 10 minutes prior to reading the luminescence on the Viewlux (PerkinElmer). The relative luciferase units are used to calculate the percent activity using the activity of DMSO in the cells and no cells columns for normalization of no inhibition and full inhibition respectively.
Potency is the fitted concentration of half-maximal effect.

SMILES | viability (percent of control) | Potency
CN[C@@H](C)C(=O)N[C@H]1CCCC[C@H]2CC[C@@H](C(=O)N[C@@H](c3ccccc3)c3cn(CCCCc4ccc(CCCCn5cc([C@@H](NC(=O)[C@@H]6CC[C@@H]7CCCC[C@H](NC(=O)[C@H](C)NC)C(=O)N76)c6ccccc6)nn5)cc4)nn3)N2C1=O | inactive: 93.9% | –
CCCCc1ccc(NS(=O)(=O)c2ccc(C)c(C(=O)N3CCN(c4cccc(C)c4C)CC3)c2)cc1 | inactive: 112% | –
Cc1cccc(-c2[nH]c(C(C)(C)C)nc2-c2ccc3nccnc3c2)n1 | inactive: 110% | –
CN(C)Cc1ccc(-c2nc3cccc4c3n2CCNC4=O)cc1 | – | inconclusive: 26.4 µM [cytotoxic, single point]
c1ccc2c(-c3cnn4cc(-c5ccc(N6CCNCC6)cc5)cnc34)ccnc2c1 | – | active: 26.4 µM
CNC(=O)c1cc(Oc2ccc(NC(=O)Nc3ccc(Cl)c(C(F)(F)F)c3)c(F)c2)ccn1 | – | inconclusive: 18.7 µM [cytotoxic, partial curve]
Cn1cnc2c(F)c(Nc3ccc(Br)cc3Cl)c(C(=O)NOCCO)cc21 | – | active: 1.18 µM
COc1ccc2c(c1)CC[C@H]1[C@@H]2CC[C@]2(C)[C@@H](NCCCCCCN3C(=O)C=CC3=O)CC[C@H]12 | – | inconclusive: 20.9 µM [cytotoxic, partial curve, poor fit]
CCOc1ccc(Nc2nc(-c3c(C)nc4ccccn34)cs2)cc1 | – | inconclusive: 0.0833 µM [cytotoxic, full curve]
Cc1cccc(-c2nn(C(=S)Nc3ccccc3)cc2-c2ccnc3ccccc23)n1 | inactive: 113% | –
O=C(C1CC1)N1CC[C@@H](Cn2c(-c3ccc(-c4ccc5occc5c4)cc3)nc3cnccc32)C1 | inactive: 103% | –
CCOC(=O)N[C@@H]1CC[C@@H]2[C@@H](C1)C[C@H]1C(=O)O[C@H](C)[C@H]1[C@@H]2C=Cc1ccc(-c2cccc(F)c2)cn1 | – | inconclusive: 16.6 µM [cytotoxic, partial curve, poor fit]
Cc1cn2c(-c3cn[nH]c3)cnc2c(Nc2ccc(C(=O)N3CCNCC3)cc2F)n1 | – | active: 20.9 µM
O=c1cc(N2CCOCC2)oc2c(-c3cccc4c3sc3ccccc34)cccc12 | – | inconclusive: 20.9 µM [cytotoxic, partial curve, poor fit]
CC(C)(C)c1[nH]cnc1C=c1[nH]c(=O)c(=Cc2ccccc2)[nH]c1=O | – | inconclusive: 0.0935 µM [cytotoxic, full curve]
CC(C)(C)C(=O)Oc1ccc2c(c1)nc(NC(=O)c1cccc([N+](=O)[O-])c1)n2CCCO | inactive: 89.9% | –
CCCCCCCCCCCCCC(=O)N[C@H](CO)[C@H](O)c1ccc([N+](=O)[O-])cc1 | – | inconclusive: 33.2 µM [cytotoxic, single point]
CC[C@H](CO)Nc1nc(NCc2ccccc2)c2ncn(C(C)C)c2n1 | – | inconclusive: 37.2 µM [cytotoxic, single point]
Cc1nc(Nc2ncc(C(=O)Nc3c(C)cccc3Cl)s2)cc(N2CCN(CCO)CC2)n1 | – | inconclusive: 8.33 µM [cytotoxic, partial curve]

Entries of single compounds as entered above. Order of values: viability (percent of control)	Potency
CCOC(=O)N[C@@H]1CC[C@@H]2[C@@H](C1)C[C@H]1C(=O)O[C@H](C)[C@H]1[C@@H]2C=Cc1ccc(-c2cccc(F)c2)cn1 as listed: –	inconclusive: 16.6 µM [cytotoxic, partial curve, poor fit]
CC[C@H](CO)Nc1nc(NCc2ccccc2)c2ncn(C(C)C)c2n1 as listed: –	inconclusive: 37.2 µM [cytotoxic, single point]
COc1ccc2c(c1)CC[C@H]1[C@@H]2CC[C@]2(C)[C@@H](NCCCCCCN3C(=O)C=CC3=O)CC[C@H]12 as listed: –	inconclusive: 20.9 µM [cytotoxic, partial curve, poor fit]

Following part:

SMILES | viability (percent of control) | Potency
O=C(Nc1cc(Cl)cc2c1[nH]c1cnccc12)c1cccnc1 | – | inconclusive: 26.4 µM [cytotoxic, single point]
Nc1nc(-c2nn(Cc3ccccc3F)c3ncccc23)nc(N)c1N1CCOCC1 | inactive: 109% | –
CCC=CC[C@H]1C(=O)CC[C@@H]1CC(=O)OC | inactive: 112% | –
O=C(Nc1cccnc1)N1CCC(Cc2cccc(Oc3ccc(C(F)(F)F)cn3)c2)CC1 | inactive: 92.4% | –
CCN(CC)CCCC(C)Nc1nc(C)cc(Nc2ccc3nc(C)cc(N)c3c2)n1 (configuration not stated) | inactive: 72.8% | –
COc1cc(N2CCC(N3CCN(C)CC3)CC2)ccc1Nc1ncc(Cl)c(Nc2ccccc2S(=O)(=O)C(C)C)n1 | – | active: 18.7 µM
CC(=O)OCC(=O)[C@@]1(O)[C@H](C)C[C@H]2[C@@H]3C=C(C)C4=Cc5c(cnn5-c5ccccc5)C[C@]4(C)[C@@H]3[C@@H](O)C[C@@]21C | inactive: 68.5% | –
CCC(=O)N[C@H]1CC[C@H](C(=O)N(C)c2ccc(-c3nc4ccccc4o3)cc2)C1 | – | inconclusive: 20.9 µM [cytotoxic, partial curve, poor fit]
CS(=O)(=O)N1CCN(Cc2cc3nc(-c4cccc5[nH]ncc45)nc(N4CCOCC4)c3s2)CC1 | – | active: 0.296 µM
COc1nc(-c2ccc3c(c2)OCO3)n(-c2ccc(NC(=O)CSc3ccccc3)cc2)n1 | inactive: 95.2% | –
CC(C)n1c(C=C[C@H](O)C[C@H](O)CC(=O)O)c(-c2ccc(F)cc2)c2ccccc21 | – | inconclusive: 4.18 µM [cytotoxic, full curve]
Cc1cccc(-c2[nH]ncc2-c2ccc3ncccc3n2)n1 | inactive: 111% [at 92.2 µM] | –
Cn1c2cc(S(C)=O)sc2c2cnn(Cc3cccc(N)c3)c(=O)c21 (configuration not stated) | inactive: 99.5% | –
S=c1nc[nH]c2nc[nH]c12 | – | active: 38.2 µM
O=C(O)c1ccc(-c2cc3cccnc3c(-c3ccc4nonc4c3)n2)cc1 | inactive: 102% | –
C1Cc2[nH]nc(-c3nn[nH]n3)c2C1 | inactive: 103% | –
CC(C)C[C@H](NC(=O)[C@H](CCc1ccccc1)NC(=O)CN1CCOCC1)C(=O)N[C@@H](Cc1ccccc1)C(=O)N[C@@H](CC(C)C)C(=O)[C@@]1(C)CO1 | – | active: 0.0372 µM
CCC(C)N(C)C(=O)c1cc2ccccc2c(-c2ccccc2Cl)n1 (configuration not stated) | inactive: 95.7% | –

Source: PubChem BioAssay (NCATS)
